From patent US5889029A, “Use of cotinine in treating psychiatric disorders” (priority 1997, dated 1999) come the findings set out here.

The chains behind the UniProt entries cited, without tags or fusion partners.
UniProt P33533, whole entry: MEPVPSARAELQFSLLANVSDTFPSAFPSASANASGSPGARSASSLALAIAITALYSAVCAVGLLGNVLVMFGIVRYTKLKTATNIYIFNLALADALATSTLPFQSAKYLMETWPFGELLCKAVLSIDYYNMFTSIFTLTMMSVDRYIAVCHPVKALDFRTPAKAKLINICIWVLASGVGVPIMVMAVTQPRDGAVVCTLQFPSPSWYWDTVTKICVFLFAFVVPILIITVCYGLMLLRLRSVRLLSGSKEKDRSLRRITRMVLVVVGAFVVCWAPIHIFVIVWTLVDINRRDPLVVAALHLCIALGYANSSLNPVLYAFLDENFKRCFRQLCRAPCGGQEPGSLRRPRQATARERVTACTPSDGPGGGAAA

The target of the assay is T1, Opiate (Delta) (Rattus norvegicus, UniProt P33533).
T1 construct: Rat forebrain membranes; from tissue; host or cells: rat forebrain membranes
The assay can be described thus: Opiate (Delta) Binding Assay.

In turn, `Oc1ccc2c3c1O[C@H]1[C@@H](O)CC[C@@]4(O)[C@@H](C2)N(CC2CCC2)CC[C@]314` [Nalbuphine] showed a Ki of 124 nM.

One may read the Ki as a measure of affinity in units of concentration, obtained from inhibition or displacement. Read a high Ki as a looser hold on the target.
